The values that follow come from the supplement of paper PMC10849652.

Chains of the proteins cited; added tags and fusions are not shown. Lines headed by an entry give the natural chain unless they say otherwise; changes in a name come on top.
UniProt Q6WKZ4: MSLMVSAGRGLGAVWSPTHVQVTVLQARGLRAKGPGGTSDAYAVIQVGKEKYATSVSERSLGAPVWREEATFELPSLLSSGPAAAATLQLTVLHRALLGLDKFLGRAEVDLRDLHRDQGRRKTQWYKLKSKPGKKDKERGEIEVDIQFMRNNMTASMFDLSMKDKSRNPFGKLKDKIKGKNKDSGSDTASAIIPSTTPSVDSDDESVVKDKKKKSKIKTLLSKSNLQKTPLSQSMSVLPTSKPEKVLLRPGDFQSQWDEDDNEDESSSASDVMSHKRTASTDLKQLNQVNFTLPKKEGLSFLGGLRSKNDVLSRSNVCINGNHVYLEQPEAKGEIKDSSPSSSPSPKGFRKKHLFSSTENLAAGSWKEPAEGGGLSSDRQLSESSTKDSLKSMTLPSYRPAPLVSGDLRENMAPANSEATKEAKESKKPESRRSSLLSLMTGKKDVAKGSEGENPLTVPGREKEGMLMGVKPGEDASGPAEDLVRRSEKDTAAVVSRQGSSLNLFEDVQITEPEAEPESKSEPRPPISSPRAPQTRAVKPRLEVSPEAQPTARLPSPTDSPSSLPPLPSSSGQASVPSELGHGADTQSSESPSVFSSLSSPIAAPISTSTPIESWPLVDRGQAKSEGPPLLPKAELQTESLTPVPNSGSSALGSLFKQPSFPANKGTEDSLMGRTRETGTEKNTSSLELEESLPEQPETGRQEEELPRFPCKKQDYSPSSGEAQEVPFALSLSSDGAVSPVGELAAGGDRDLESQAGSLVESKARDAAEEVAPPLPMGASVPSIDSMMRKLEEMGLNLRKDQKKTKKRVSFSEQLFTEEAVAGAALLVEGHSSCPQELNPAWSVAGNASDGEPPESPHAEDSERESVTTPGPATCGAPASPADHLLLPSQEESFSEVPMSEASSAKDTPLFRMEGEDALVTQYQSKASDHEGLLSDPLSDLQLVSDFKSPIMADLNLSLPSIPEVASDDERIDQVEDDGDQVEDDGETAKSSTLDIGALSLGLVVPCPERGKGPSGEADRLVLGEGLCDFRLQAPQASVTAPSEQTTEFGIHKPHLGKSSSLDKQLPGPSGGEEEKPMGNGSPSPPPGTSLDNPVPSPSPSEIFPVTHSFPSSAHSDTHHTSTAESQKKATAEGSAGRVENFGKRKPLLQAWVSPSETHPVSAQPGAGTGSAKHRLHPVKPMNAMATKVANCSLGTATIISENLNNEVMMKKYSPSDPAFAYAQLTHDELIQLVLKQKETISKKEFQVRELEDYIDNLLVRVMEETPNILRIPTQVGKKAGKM
UniProt Q8TDY2, whole entry, looked up: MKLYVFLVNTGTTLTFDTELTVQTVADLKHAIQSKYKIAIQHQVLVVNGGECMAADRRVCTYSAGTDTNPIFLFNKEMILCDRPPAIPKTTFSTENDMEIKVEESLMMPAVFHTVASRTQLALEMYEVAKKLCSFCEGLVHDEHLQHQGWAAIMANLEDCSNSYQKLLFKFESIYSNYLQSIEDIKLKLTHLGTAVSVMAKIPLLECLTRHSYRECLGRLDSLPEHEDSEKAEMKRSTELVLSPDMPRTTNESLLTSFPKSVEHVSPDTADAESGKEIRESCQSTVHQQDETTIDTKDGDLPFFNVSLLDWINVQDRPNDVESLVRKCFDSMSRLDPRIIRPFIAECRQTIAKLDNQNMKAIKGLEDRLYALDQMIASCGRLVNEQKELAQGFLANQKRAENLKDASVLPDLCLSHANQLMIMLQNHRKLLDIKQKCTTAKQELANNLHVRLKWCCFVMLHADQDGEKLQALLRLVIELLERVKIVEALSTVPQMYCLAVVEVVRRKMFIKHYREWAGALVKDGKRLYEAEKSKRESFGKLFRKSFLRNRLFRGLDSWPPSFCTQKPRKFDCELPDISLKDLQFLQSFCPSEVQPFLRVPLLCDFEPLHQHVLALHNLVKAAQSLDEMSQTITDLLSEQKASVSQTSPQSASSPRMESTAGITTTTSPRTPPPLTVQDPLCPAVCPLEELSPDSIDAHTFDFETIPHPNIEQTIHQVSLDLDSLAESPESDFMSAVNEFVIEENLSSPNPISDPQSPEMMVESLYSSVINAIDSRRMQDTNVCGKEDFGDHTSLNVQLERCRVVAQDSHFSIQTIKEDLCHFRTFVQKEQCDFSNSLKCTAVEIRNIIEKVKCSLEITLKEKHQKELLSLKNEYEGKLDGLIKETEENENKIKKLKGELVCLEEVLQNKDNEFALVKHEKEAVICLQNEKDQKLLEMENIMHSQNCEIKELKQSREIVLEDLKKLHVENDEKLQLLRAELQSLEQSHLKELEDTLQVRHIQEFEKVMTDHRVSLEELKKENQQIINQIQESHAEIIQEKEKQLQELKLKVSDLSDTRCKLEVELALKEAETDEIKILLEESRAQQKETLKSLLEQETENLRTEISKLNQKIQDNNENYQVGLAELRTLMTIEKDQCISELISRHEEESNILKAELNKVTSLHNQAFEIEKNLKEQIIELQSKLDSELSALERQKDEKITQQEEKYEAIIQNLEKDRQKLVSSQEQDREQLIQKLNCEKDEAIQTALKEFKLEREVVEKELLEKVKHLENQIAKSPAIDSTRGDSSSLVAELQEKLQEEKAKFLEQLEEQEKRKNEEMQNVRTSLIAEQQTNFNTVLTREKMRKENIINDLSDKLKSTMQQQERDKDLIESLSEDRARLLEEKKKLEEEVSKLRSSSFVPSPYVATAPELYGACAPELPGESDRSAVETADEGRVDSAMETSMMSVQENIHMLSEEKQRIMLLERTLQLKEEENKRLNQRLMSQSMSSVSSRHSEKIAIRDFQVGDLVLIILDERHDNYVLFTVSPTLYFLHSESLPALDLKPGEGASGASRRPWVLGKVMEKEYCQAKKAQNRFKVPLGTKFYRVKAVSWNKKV
UniProt Q9H082: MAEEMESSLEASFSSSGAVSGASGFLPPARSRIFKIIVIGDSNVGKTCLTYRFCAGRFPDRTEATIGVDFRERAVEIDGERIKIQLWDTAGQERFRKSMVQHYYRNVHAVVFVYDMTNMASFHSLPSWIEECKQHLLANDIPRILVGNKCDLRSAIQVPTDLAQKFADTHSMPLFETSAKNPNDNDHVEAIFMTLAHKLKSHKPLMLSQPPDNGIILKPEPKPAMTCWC
UniProt P11233: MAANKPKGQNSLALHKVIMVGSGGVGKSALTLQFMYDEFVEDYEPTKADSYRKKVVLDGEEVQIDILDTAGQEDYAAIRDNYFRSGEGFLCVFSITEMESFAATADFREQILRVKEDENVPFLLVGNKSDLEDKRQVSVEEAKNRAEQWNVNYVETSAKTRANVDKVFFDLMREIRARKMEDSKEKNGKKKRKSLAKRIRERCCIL
UniProt Q8TBN0: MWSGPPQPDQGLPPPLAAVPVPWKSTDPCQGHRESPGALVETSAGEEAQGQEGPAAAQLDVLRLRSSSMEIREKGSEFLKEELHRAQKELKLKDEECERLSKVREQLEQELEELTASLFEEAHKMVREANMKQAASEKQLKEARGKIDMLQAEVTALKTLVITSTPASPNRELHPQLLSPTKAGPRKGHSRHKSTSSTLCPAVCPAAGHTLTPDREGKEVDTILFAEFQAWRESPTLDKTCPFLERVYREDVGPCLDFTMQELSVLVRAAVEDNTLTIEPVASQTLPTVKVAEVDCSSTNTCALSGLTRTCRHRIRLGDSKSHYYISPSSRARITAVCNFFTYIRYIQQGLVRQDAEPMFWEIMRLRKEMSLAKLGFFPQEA
UniProt Q9NW64: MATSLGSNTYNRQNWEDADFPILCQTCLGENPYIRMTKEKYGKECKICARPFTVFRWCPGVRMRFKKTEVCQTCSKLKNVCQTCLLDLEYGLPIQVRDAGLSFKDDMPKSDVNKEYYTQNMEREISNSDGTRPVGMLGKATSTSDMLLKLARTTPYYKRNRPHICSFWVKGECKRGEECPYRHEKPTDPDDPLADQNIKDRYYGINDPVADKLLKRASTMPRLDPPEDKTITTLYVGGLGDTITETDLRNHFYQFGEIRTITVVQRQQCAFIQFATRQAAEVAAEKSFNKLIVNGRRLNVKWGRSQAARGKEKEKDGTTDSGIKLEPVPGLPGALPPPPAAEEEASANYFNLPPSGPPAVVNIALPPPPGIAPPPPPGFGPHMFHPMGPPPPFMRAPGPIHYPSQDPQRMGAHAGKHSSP
UniProt P54136: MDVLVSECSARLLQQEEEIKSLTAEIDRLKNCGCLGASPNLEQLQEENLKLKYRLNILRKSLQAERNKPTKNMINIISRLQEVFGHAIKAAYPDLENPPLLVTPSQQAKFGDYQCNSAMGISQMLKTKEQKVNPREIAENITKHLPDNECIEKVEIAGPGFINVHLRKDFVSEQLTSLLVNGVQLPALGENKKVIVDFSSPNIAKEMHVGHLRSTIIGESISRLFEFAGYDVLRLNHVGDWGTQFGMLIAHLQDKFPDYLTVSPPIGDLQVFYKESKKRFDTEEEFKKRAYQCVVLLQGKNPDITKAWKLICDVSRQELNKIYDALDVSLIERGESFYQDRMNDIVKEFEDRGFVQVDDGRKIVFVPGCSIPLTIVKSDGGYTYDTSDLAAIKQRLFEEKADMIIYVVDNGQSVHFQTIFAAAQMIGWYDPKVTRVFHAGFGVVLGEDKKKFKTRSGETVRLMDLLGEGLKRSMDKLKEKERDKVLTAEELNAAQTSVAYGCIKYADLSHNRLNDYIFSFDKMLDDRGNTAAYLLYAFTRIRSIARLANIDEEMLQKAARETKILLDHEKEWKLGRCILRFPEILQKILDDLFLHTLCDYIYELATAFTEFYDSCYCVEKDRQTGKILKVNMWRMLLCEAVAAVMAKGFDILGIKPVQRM
UniProt Q96PK6: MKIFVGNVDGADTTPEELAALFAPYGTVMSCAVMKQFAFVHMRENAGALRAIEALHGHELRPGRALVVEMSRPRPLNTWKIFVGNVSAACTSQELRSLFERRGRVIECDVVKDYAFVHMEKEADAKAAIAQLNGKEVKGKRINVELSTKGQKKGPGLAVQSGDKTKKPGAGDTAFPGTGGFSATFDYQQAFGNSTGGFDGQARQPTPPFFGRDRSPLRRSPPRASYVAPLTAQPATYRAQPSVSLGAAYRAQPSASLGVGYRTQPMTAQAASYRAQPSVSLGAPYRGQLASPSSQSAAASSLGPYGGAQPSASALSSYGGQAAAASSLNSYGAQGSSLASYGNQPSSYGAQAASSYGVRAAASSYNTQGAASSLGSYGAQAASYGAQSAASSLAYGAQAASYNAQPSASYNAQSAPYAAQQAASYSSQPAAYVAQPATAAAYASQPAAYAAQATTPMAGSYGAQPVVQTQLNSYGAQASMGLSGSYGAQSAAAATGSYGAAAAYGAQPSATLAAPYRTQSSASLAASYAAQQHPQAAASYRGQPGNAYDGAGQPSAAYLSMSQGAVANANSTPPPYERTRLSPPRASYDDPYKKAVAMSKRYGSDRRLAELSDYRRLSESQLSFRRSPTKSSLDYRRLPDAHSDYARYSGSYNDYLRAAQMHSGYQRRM
UniProt Q9UKM9: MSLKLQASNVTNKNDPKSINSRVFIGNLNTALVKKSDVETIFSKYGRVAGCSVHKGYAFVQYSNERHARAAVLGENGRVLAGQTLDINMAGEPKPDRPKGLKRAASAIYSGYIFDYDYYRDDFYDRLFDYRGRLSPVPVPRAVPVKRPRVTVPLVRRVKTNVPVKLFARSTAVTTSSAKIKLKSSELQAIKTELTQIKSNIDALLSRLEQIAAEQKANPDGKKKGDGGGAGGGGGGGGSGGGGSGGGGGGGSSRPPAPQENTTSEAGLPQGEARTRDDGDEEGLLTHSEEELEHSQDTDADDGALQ
UniProt Q92930: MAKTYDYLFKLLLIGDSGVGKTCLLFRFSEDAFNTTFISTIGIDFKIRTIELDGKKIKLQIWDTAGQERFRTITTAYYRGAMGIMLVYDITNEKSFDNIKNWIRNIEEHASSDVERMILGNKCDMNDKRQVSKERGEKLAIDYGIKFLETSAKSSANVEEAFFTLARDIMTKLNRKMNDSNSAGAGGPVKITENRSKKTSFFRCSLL
UniProt P51148: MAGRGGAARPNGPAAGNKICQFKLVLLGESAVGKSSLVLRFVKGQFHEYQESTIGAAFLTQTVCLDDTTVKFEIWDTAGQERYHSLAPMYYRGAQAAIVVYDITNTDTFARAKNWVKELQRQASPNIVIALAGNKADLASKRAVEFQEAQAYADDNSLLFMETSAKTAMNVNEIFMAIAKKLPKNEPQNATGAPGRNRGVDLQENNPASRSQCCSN
UniProt Q06609, whole entry, looked up: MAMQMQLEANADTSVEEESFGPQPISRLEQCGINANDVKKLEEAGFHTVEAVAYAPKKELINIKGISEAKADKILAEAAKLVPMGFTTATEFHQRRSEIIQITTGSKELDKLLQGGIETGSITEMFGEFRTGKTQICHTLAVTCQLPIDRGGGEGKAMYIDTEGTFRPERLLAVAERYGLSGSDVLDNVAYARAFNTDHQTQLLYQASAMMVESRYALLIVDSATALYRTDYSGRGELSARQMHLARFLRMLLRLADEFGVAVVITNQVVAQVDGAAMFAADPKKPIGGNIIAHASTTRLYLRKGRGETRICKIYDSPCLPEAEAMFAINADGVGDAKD

The other results are listed elsewhere or left out.

Compound in the first experiment: CNC(=O)C1=CC=CC=C1NC2=NC(=NC=C2Cl)NC3=C(C=C(C=C3)N4CCOCC4)OC
The experiment in a line: log2 fold change, soluble protein after heating vs DMSO (PISA); higher = thermal stabilisation; K562 cells, 10 uM, 30 min; active = over 0.2 and 3.5 SD of the protein, either way, in both replicates (recomputed). The essentials:
(§1)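 K562 cells at 2×10^6 cells/mL were treated for 30 min with 10 μM compound, and aliquots were heated for 3 min over 48°C-58°C before pooling. Extraction used PBS with 0.5% NP-40 at 4°C, and soluble protein was the supernatant after 21,000xg for 90 min, measured by TMTpro 16plex LC-MS/MS with channel sums equalised. Thermal stability values, relative to control samples and from duplicates, are log2 fold changes.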
As to RAB11FIP1 (UniProt Q6WKZ4), the log2 fold change was inactive: 0.045.

With RB1CC1 (UniProt Q8TDY2), the log2 fold change is inactive: -0.051.

For the target RAB33B (UniProt Q9H082), the log2 fold change is inactive: -0.01.

As to RANBP2 (UniProt P49792), the log2 fold change was inactive: 0.886.

In the case of RBM26 isoform 2 (UniProt Q5T8P6), the log2 fold change is inactive: -0.074.

RBM33 (UniProt Q96EV2): the log2 fold change is inactive: -0.021.

RALA (UniProt P11233): the log2 fold change is inactive: -0.045.

RAB9A (UniProt P51151): the log2 fold change was inactive: -0.054.

Turning to RARS2 (UniProt Q5T160), the log2 fold change was inactive: -0.035.

As for RAD51D (UniProt O75771), the log2 fold change was inactive: -0.113.

As for RAB3IL1 (UniProt Q8TBN0), the log2 fold change is inactive: 0.023.

Regarding RAC1 (UniProt P63000), the log2 fold change was inactive: -0.009.

Regarding RBM22 (UniProt Q9NW64), the log2 fold change was inactive: -0.037.

Consider RARS (UniProt P54136), for which the log2 fold change was inactive: -0.073.

As for RABGAP1L isoform 3 (UniProt Q5R372), the log2 fold change was inactive: 0.018.

As for RAB3GAP2 (UniProt Q9H2M9), the log2 fold change was inactive: 0.017.

As to RBM27 (UniProt Q9P2N5), the log2 fold change is active: -0.297.

On to RAC3 (UniProt P60763), for which the log2 fold change was inactive: -0.064.

For the target RBM25 (UniProt P49756), the log2 fold change is inactive: -0.164.

As for RBM14 (UniProt Q96PK6), the log2 fold change was inactive: 0.038.

In the case of RAF1 isoform 2 (UniProt P04049), the log2 fold change was inactive: 0.078.

Take RBBP7 (UniProt Q16576): the log2 fold change is inactive: -0.033.

For the target RALY (UniProt Q9UKM9), the log2 fold change was inactive: -0.01.

With R3HDM4 (UniProt Q96D70), the log2 fold change is inactive: 0.002.

Regarding RAB8B (UniProt Q92930), the log2 fold change was inactive: 0.006.

For RABGAP1L isoform 5 (UniProt Q5R372), the log2 fold change is inactive: -0.014.

For the target RAVER1 (UniProt E9PAU2), the log2 fold change was inactive: -0.069.

RABAC1 (UniProt Q9UI14): the log2 fold change is inactive: 0.004.

As to RAB5C isoform 2 (UniProt P51148), the log2 fold change is inactive: -0.013.

As to RAD51 (UniProt Q06609), the log2 fold change was active: 0.337.

As for RAD50 isoform 2 (UniProt Q92878), the log2 fold change is inactive: 0.

Compound in a further experiment: CNC(=O)c1ccc(Nc2ncc(C(F)(F)F)c(NCc3nccnc3N(C)S(C)(=O)=O)n2)cc1 [defactinib]
The description is as above. The essentials:
as §1
Consider RAB11FIP1 (UniProt Q6WKZ4), for which the log2 fold change was inactive: -0.16.

For the target RB1CC1 (UniProt Q8TDY2), the log2 fold change is inactive: -0.042.

On to RAB33B (UniProt Q9H082), for which the log2 fold change is inactive: -0.005.

As to RANBP2 (UniProt P49792), the log2 fold change was inactive: -0.009.

For RBM26 isoform 2 (UniProt Q5T8P6), the log2 fold change was active: -0.489.

Take RBM33 (UniProt Q96EV2): the log2 fold change was active: -0.273.

RALA (UniProt P11233): the log2 fold change was inactive: 0.017.

For RAB9A (UniProt P51151), the log2 fold change is inactive: 0.

Regarding RAD50, A0A494C0Y7, the log2 fold change is inactive: -0.146.

On to RARS2 (UniProt Q5T160), for which the log2 fold change is inactive: -0.064.

In the case of RAD51D (UniProt O75771), the log2 fold change is inactive: 0.051.

As to RAB3IL1 (UniProt Q8TBN0), the log2 fold change is inactive: -0.042.

On to RAC1 (UniProt P63000), for which the log2 fold change was inactive: -0.012.

On to RBM22 (UniProt Q9NW64), for which the log2 fold change is inactive: -0.05.

RARS (UniProt P54136): the log2 fold change is inactive: 0.187.

With RABGAP1L isoform 3 (UniProt Q5R372), the log2 fold change is inactive: -0.055.

In the case of RAB3GAP2 (UniProt Q9H2M9), the log2 fold change is inactive: -0.064.

Turning to RBM27 (UniProt Q9P2N5), the log2 fold change is active: -0.303.

As for RAC3 (UniProt P60763), the log2 fold change was inactive: 0.011.

Regarding RBM25 (UniProt P49756), the log2 fold change was active: -0.24.

In the case of RBM14 (UniProt Q96PK6), the log2 fold change is inactive: -0.192.

Take RAF1 isoform 2 (UniProt P04049): the log2 fold change was inactive: -0.075.

Consider RALY (UniProt Q9UKM9), for which the log2 fold change is inactive: 0.089.

R3HDM4 (UniProt Q96D70): the log2 fold change is inactive: 0.019.

RAB8B (UniProt Q92930): the log2 fold change is inactive: -0.004.

Take RAVER1 (UniProt E9PAU2): the log2 fold change is inactive: -0.322.

Turning to RABAC1 (UniProt Q9UI14), the log2 fold change was inactive: 0.077.

On to RAB5C isoform 2 (UniProt P51148), for which the log2 fold change was inactive: -0.011.

Regarding RAD51 (UniProt Q06609), the log2 fold change was inactive: 0.027.

On to RAD50 isoform 2 (UniProt Q92878), for which the log2 fold change is inactive: -0.103.

Compound in the next experiment: CNCc1ccc(-c2[nH]c3cc(F)cc4c3c2CCNC4=O)cc1 [rucaparib]
The description is as above. The essentials: as §1
As for RAB11FIP1 (UniProt Q6WKZ4), the log2 fold change is inactive: -0.012.

Turning to RB1CC1 (UniProt Q8TDY2), the log2 fold change is inactive: 0.09.

RAB33B (UniProt Q9H082): the log2 fold change is inactive: 0.035.

For RANBP2 (UniProt P49792), the log2 fold change was inactive: -0.028.

Consider RBM26 isoform 2 (UniProt Q5T8P6), for which the log2 fold change was inactive: -0.039.

With RBM33 (UniProt Q96EV2), the log2 fold change is inactive: -0.017.

Take RALA (UniProt P11233): the log2 fold change is inactive: 0.002.

With RAB9A (UniProt P51151), the log2 fold change was inactive: -0.017.

Regarding RAD50, A0A494C0Y7, the log2 fold change is inactive: -0.206.

With RARS2 (UniProt Q5T160), the log2 fold change was inactive: 0.003.

Regarding RAD51D (UniProt O75771), the log2 fold change was inactive: -0.083.

In the case of RAB3IL1 (UniProt Q8TBN0), the log2 fold change was inactive: -0.005.

With RAC1 (UniProt P63000), the log2 fold change is inactive: 0.075.

Consider RBM22 (UniProt Q9NW64), for which the log2 fold change was inactive: 0.04.

Regarding RARS (UniProt P54136), the log2 fold change is inactive: 0.367.

As to RABGAP1L isoform 3 (UniProt Q5R372), the log2 fold change is inactive: -0.05.

For the target RAB3GAP2 (UniProt Q9H2M9), the log2 fold change was inactive: 0.205.

Turning to RANBP6 (UniProt O60518), the log2 fold change is inactive: 0.168.

For the target RBM27 (UniProt Q9P2N5), the log2 fold change was inactive: -0.015.

RAC3 (UniProt P60763): the log2 fold change is inactive: -0.134.

On to RBM25 (UniProt P49756), for which the log2 fold change was inactive: 0.03.

With RBM14 (UniProt Q96PK6), the log2 fold change is inactive: 0.185.

Take RAF1 isoform 2 (UniProt P04049): the log2 fold change is inactive: 0.125.

As for RBBP7 (UniProt Q16576), the log2 fold change is inactive: -0.008.

As to RALY (UniProt Q9UKM9), the log2 fold change is inactive: 0.221.

Take R3HDM4 (UniProt Q96D70): the log2 fold change was inactive: 0.034.

For RAB8B (UniProt Q92930), the log2 fold change was inactive: -0.014.

As to RAVER1 (UniProt E9PAU2), the log2 fold change is inactive: -0.186.

For the target RABAC1 (UniProt Q9UI14), the log2 fold change is inactive: -0.017.

On to RAB5C isoform 2 (UniProt P51148), for which the log2 fold change is inactive: -0.02.

In the case of RAD51 (UniProt Q06609), the log2 fold change was inactive: -0.035.

For RAD50 isoform 2 (UniProt Q92878), the log2 fold change is inactive: 0.006.
